Test results as given in article PMC8964797.
Results are given in words; binding and its absence hold for the method and conditions named. Binding can be weak; no strength is given. For part of these data: Sequences can lack the tags named with a protein. For part of these data: In cells and extracts the contact can be indirect.

Protein sequences, listed by entry. Tags and fused reporters are not part of them. Lines headed by an entry give the natural chain unless they say otherwise; changes in a name come on top.
UniProt Q9LM15: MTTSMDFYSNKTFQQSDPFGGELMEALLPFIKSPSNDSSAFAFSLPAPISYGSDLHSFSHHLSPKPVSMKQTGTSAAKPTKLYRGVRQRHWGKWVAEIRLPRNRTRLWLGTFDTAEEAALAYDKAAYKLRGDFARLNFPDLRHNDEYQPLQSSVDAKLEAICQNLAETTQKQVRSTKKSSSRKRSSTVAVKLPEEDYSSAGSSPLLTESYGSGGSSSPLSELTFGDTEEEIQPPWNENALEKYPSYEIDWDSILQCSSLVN
UniProt Q9SKW5: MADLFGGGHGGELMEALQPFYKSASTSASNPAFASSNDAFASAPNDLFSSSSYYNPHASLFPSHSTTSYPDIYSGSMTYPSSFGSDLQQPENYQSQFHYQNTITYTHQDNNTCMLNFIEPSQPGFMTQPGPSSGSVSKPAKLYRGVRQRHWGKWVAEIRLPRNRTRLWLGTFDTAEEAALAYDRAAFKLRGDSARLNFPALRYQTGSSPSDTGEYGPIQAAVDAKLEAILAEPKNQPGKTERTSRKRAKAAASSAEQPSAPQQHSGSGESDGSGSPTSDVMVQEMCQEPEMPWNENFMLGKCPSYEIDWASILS
UniProt P14713: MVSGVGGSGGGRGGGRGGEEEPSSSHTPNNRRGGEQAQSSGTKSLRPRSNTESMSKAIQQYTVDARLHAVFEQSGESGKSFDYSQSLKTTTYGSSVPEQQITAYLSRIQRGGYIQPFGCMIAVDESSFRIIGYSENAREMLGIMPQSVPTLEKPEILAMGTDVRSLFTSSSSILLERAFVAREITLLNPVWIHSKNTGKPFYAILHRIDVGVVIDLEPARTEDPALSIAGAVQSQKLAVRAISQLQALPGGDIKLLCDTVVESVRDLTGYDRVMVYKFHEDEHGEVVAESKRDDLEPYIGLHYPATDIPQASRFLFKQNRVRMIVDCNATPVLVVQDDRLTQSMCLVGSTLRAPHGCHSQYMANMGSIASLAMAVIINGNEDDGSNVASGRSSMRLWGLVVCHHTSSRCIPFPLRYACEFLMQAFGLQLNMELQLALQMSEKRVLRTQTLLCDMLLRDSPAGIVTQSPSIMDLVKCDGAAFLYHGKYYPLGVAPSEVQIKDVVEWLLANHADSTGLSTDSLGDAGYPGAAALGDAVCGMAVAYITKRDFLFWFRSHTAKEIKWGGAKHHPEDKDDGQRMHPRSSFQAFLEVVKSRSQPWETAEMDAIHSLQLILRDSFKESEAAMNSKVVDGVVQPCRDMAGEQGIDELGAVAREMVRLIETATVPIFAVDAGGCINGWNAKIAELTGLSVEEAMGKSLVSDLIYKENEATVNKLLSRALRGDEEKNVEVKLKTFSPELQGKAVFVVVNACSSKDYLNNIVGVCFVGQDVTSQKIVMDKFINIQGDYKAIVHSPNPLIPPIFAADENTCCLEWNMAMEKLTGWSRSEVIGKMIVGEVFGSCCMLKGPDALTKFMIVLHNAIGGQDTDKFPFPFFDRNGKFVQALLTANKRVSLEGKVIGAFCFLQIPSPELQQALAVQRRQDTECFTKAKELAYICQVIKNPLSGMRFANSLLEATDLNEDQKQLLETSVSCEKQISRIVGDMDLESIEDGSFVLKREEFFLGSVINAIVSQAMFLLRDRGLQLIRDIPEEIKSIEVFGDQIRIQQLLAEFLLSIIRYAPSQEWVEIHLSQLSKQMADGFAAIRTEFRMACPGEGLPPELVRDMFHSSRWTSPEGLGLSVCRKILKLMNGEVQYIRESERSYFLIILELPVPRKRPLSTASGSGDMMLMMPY

T1: Full-length phyA fused to LexA (Arabidopsis thaliana) (UniProt P14712)
T1 sequence (chain, chromophore phycocyanobilin (PCB) supplied in the medium): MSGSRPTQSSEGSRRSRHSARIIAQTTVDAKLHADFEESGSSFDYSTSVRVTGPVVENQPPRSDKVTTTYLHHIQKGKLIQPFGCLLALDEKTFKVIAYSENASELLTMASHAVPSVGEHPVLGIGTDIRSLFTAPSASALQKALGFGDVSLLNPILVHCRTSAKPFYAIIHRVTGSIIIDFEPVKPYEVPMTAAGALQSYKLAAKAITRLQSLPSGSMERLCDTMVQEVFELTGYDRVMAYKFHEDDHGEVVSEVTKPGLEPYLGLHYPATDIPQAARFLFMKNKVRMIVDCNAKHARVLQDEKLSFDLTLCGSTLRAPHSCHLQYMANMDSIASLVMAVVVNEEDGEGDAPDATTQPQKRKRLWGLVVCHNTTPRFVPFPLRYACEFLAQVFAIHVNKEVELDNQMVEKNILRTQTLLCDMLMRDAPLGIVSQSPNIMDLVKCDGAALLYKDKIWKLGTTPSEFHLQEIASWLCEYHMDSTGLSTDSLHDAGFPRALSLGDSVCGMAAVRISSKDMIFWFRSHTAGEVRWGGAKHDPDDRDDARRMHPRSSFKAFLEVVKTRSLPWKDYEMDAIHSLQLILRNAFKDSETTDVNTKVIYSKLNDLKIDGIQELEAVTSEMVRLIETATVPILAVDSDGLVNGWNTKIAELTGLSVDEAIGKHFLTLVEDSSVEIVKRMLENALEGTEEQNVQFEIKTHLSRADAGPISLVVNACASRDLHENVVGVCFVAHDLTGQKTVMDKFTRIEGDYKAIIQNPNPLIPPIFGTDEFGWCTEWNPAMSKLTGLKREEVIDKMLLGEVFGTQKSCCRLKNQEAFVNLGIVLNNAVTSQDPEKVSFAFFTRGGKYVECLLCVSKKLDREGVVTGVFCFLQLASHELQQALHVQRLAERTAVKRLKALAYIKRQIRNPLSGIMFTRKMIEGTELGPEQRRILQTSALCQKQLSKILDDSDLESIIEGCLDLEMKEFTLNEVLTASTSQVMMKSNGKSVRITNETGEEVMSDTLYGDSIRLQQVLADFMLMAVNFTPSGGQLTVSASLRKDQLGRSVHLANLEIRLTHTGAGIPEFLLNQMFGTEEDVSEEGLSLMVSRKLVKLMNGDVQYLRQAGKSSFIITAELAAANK

B1: Endogenous phyA (protein, UniProt P14712 1-1122)
chain: T1 sequence (chain, chromophore phycocyanobilin (PCB) supplied in the medium)

What was measured:
[1] = target: T1, Full-length phyA fused to LexA (Arabidopsis thaliana); test: two-hybrid; phyA or phyBN fused to LexA, ERFs fused to GAL4 AD, S. cerevisiae NMY51; 20 μM PCB; ONPG β-Gal assay after 5 min R or FR light, and growth on CSM -L-T-H in the dark or R light (5 mM 3-amino-1,2,4-triazole for phyB)
[2] = target: HA-YFP-ERF58 (Arabidopsis thaliana) (UniProt Q9LM15); test: co-IP; extracts of 3-day-old dark-grown Col-0 pERF58:HA-YFP-ERF58 seedlings kept in the dark or treated with 5 min R, 2 h FR, or 2 h FR + 5 min R; α-GFP MicroBeads; blots with α-phyA, α-phyB, α-HA; Col-0 as negative control

| Molecule | binding [1] | binding [2] |
| --- | --- | --- |
| ERF55 (yeast two-hybrid fusion) (from UniProt Q9SKW5) | binds | – |
| Endogenous phyB (from UniProt P14713 1-1172) | – | binds |
| B1 | – | binds |
